Source: paper PMC5668434, “Modulation of telomere protection by the PI3K/AKT pathway” (Nature Communications, 2017)

By UniProt entry, the sequences of proteins in these tests, tags left out. Where a name states a change or a piece, a line headed by the entry shows the natural chain unless it says otherwise.
UniProt P70371: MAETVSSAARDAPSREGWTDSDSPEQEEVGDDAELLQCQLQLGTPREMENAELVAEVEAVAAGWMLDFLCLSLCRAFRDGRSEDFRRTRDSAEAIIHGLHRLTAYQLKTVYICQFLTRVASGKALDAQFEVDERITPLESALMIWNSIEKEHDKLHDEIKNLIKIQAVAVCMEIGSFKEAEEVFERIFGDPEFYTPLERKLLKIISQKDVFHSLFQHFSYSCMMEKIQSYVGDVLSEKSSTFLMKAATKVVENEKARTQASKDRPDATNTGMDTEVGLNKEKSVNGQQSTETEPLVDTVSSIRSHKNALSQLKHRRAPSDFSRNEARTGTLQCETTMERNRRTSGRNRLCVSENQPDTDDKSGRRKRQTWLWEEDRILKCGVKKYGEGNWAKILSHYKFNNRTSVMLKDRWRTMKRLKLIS

Biological target: GST-TRF1 WT (mouse) (UniProt P70371)
Assay: EMSA
Settings: supershift with anti-TRF1 antibody, 1 ug protein; 20 mM HEPES-KOH pH 7.9, 150 mM KCl, 5% glycerol, 4% Ficoll, 1 mM EDTA, 0.1 mM MgCl2, 0.5 mM DTT, 20 ug BSA, 1 ug poly(dI-dC), 30 ul, 20 min, room temperature; recombinant protein; protein details: N-terminal 6xHis and GST; label: 32P 5'-end label (T4 PNK)

Q: Does “GGGTTAGGGTTAGGGTTAGGGTTAGGGTTAGGGTTAGGGTTAGGGCCCCTC (double strand) [ds(TTAGGG)7 telomeric probe]” bind?
A: Result: binds

The exact form of at least one protein or probe is not confirmed.
